Where a chain is given by its changes, count along the chain named. No constants are given. Whether binding was seen depends on the method and setting. Some entries that bind do so weakly or less than the wild type.
Key:
[1] = molecular target: T1, EC2 deletion mutant of human CDH6 (human) (UniProt P55285); assay: flow cytometry; 293α cells transfected with EC2-deleted hCDH6 (open) vs untransfected control cells (shaded); APC anti-human IgG
T1 sequence: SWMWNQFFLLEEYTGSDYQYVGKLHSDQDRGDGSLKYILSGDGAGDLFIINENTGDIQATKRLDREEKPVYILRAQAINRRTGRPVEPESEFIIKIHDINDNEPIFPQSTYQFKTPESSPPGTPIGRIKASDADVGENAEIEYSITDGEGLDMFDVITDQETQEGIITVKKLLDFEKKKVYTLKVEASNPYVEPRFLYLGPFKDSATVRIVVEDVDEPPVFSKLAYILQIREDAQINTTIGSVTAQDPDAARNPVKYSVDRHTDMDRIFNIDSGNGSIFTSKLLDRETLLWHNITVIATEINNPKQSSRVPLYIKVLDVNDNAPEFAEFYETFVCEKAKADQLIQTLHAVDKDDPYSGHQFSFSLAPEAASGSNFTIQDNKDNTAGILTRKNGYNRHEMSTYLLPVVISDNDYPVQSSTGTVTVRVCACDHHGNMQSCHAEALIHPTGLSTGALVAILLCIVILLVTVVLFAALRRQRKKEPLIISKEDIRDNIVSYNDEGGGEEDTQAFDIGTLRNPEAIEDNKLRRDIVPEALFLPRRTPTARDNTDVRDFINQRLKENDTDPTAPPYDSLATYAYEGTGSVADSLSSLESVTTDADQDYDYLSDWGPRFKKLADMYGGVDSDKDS

[2] = molecular target: T2, EC1 deletion mutant of human CDH6 (human) (UniProt P55285); assay: flow cytometry; 293α cells transfected with EC1-deleted hCDH6 (open) vs untransfected control cells (shaded); APC anti-human IgG
T2 sequence: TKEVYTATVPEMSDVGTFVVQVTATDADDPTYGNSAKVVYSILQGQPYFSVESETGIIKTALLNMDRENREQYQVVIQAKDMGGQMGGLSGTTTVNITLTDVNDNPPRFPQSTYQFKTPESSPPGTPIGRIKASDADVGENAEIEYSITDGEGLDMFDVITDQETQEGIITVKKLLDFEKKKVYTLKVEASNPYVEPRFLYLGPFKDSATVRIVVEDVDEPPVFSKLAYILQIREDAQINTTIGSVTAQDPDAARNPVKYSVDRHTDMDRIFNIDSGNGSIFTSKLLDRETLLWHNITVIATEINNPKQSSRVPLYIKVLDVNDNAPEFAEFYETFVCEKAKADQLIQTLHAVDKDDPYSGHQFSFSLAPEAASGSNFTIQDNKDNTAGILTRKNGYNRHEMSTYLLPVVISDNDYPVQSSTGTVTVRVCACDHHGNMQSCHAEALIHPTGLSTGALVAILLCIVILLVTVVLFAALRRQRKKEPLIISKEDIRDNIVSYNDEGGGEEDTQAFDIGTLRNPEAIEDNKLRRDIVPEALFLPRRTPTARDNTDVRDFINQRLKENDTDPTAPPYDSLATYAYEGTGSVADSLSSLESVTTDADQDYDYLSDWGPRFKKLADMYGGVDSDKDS

[3] = molecular target: T3, EC3 deletion mutant of human CDH6 (human) (UniProt P55285); assay: flow cytometry; 293α cells transfected with EC3-deleted hCDH6 (open) vs untransfected control cells (shaded); APC anti-human IgG
T3 sequence: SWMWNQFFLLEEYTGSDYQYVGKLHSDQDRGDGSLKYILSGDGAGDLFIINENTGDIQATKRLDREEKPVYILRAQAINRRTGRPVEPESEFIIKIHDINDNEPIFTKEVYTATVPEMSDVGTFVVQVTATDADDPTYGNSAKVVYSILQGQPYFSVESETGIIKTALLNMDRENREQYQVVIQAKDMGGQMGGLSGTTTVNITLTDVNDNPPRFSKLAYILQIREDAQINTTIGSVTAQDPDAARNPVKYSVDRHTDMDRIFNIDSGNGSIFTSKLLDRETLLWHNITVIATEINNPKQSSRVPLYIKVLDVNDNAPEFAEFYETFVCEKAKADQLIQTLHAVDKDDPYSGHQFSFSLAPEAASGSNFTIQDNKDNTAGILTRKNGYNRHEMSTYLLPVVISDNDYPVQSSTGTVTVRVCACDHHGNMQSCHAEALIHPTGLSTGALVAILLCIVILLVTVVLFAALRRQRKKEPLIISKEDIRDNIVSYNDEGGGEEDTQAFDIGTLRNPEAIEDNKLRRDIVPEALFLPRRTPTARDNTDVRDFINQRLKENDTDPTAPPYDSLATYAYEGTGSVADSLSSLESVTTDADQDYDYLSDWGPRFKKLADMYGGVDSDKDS

[4] = molecular target: T1, EC2 deletion mutant of human CDH6 (human); assay: flow cytometry, transfected 293α cells
[5] = molecular target: T4, EC4 deletion mutant of human CDH6 (human) (UniProt P55285); assay: flow cytometry, transfected 293α cells
T4 sequence: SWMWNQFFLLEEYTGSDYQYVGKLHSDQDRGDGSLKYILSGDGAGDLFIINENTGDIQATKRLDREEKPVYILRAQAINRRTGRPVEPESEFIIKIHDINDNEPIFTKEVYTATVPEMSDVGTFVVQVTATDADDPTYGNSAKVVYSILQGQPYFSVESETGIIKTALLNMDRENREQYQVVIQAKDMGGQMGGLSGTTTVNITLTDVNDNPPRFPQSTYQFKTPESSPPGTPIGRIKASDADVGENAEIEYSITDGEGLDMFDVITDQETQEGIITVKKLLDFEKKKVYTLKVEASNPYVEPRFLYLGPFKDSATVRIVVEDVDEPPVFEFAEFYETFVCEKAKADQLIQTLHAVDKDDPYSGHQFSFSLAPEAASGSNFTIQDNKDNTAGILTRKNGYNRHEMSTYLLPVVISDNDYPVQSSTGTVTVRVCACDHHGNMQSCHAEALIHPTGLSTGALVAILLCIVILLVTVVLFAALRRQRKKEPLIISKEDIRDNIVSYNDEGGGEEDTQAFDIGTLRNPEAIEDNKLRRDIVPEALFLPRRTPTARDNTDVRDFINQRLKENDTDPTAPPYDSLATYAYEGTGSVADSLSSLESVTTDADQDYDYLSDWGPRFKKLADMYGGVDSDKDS

[6] = molecular target: T2, EC1 deletion mutant of human CDH6 (human); assay: flow cytometry, transfected 293α cells
[7] = molecular target: T3, EC3 deletion mutant of human CDH6 (human); assay: flow cytometry, transfected 293α cells
[8] = molecular target: T4, EC4 deletion mutant of human CDH6 (human); assay: flow cytometry; 293α cells transfected with EC4-deleted hCDH6 (open) vs untransfected control cells (shaded); APC anti-human IgG
[9] = molecular target: cynomolgus monkey CDH6 (on cells) (cynomolgus monkey); assay: flow cytometry, MFI vs antibody concentration; 293α cells transiently transfected with cynoCDH6; PE anti-human IgG Fc
[10] = molecular target: T5, EC5 deletion mutant of human CDH6 (human) (UniProt P55285); assay: flow cytometry; 293α cells transfected with EC5-deleted hCDH6 (open) vs untransfected control cells (shaded); APC anti-human IgG
T5 sequence: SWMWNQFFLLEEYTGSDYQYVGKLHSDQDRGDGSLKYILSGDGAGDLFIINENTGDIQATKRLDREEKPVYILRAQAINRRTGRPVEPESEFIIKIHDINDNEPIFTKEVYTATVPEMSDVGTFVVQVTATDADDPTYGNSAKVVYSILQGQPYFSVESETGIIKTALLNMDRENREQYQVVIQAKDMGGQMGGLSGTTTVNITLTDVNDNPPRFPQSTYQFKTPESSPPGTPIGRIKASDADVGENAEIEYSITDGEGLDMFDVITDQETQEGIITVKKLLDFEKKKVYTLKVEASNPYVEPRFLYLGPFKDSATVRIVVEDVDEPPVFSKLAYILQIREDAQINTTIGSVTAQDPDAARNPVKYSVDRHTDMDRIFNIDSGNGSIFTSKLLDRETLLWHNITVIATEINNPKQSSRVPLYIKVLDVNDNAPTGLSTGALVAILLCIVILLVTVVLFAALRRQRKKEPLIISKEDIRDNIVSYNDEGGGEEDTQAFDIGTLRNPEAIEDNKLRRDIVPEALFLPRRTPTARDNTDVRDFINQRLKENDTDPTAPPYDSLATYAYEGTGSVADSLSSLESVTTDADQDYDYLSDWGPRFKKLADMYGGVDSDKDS

[11] = molecular target: T5, EC5 deletion mutant of human CDH6 (human); assay: flow cytometry, transfected 293α cells
[12] = molecular target: human CDH6 (full-length, on cells) (human) (UniProt P55285); assay: flow cytometry, transfected 293α cells
[13] = molecular target: cynomolgus monkey CDH6 (on cells) (cynomolgus monkey); assay: flow cytometry, transfected 293α cells, antibody dilution series
[14] = molecular target: human CDH6 (full-length, on cells) (human) (UniProt P55285); assay: as above
[15] = molecular target: human CDH6 (full-length, on cells) (human) (UniProt P55285); assay: flow cytometry; 293α cells transfected with full-length hCDH6 (open) vs untransfected control cells (shaded); APC anti-human IgG
[16] = molecular target: human CDH6 (full-length, on cells) (human) (UniProt P55285); assay: flow cytometry, MFI vs antibody concentration; 293α cells transiently transfected with hCDH6; PE anti-human IgG Fc
[17] = molecular target: human CDH6 (full-length, on cells) (human) (UniProt P55285); assay: competition flow cytometry on 786-O/hCDH6 cells; competitor: Alexa 488-labeled H01L02 at 5 nM; unlabeled antibody varied [lower panel]

Measured: binding

B1: anti-CDH6 antibody NOV0712 (antibody, V domains shown)
VH: QVQLLESGGGLVQPGGSLRLSCAASGFTFSSHGMHWVRQAPGKGLEWVSVISGSGSNTGYADSVKGRFTISRDNSKNTLYLQMNSLRAEDTAVYYCARQWGSYAFDSWGQGTLVTVSS
VL: DIQMTQSPSSLSASVGDRVTITCRASQSISSYLNWYQQKPGKAPKLLIYAVSTLQSGVPSRFSGSGSGTDFTLTISSLQPEDFATYYCQQSGTFPPTTFGQGTKVEIKR
binds: [1] | [2] | [3] | [4] | [5] | [6] | [7] | [8]

B2: H01L02 antibody (antibody, human IgG1, kappa, V domains shown)
VH: EVQLVQSGAEVKKPGASVKVSCKASGYTFTRNFMHWVRQAPGQGLEWMGWIYPGDGETEYAQKFQGRVTITADTSTSTAYMELSSLRSEDTAVYYCARGVYGGFAGGYFDFWGQGTLVTVSS
VL: DIQMTQSPSSLSASVGDRVTITCKASQNIYKNLAWYQQKPGKAPKLLIYDANTLQTGVPSRFSGSGSGSDFTLTISSLQPEDFATYFCQQYYSGWAFGQGTKVEIKR
not listed: [3] | [7]
binds: all other assays above

B3: H04L02 antibody (antibody, human IgG1, kappa, V domains shown)
VH: B2 VH with E1Q, V37I, I70L, T74R
VL: B2 VL
binds: [1] | [2] | [10] | [4] | [5] | [11] | [6] | [8]

Reference: patent US20200171163A1
